Among the data in the supplement of paper PMC6411743 are NP40-soluble protein abundance values, retold here.

By UniProt entry, the sequences of proteins in these tests, tags left out. Where a name states a change or a piece, a line headed by the entry shows the natural chain unless it says otherwise.
UniProt Q9H0F6: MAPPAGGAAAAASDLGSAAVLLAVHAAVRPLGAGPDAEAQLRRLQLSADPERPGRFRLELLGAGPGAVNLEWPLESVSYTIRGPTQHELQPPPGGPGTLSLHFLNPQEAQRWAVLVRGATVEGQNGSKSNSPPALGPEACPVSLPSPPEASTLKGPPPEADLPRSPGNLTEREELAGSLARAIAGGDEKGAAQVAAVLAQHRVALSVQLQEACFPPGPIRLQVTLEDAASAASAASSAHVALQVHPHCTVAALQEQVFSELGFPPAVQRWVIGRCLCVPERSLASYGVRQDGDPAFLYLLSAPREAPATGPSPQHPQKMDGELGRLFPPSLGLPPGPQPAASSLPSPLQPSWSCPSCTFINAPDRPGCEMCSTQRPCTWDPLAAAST
UniProt Q9NS87: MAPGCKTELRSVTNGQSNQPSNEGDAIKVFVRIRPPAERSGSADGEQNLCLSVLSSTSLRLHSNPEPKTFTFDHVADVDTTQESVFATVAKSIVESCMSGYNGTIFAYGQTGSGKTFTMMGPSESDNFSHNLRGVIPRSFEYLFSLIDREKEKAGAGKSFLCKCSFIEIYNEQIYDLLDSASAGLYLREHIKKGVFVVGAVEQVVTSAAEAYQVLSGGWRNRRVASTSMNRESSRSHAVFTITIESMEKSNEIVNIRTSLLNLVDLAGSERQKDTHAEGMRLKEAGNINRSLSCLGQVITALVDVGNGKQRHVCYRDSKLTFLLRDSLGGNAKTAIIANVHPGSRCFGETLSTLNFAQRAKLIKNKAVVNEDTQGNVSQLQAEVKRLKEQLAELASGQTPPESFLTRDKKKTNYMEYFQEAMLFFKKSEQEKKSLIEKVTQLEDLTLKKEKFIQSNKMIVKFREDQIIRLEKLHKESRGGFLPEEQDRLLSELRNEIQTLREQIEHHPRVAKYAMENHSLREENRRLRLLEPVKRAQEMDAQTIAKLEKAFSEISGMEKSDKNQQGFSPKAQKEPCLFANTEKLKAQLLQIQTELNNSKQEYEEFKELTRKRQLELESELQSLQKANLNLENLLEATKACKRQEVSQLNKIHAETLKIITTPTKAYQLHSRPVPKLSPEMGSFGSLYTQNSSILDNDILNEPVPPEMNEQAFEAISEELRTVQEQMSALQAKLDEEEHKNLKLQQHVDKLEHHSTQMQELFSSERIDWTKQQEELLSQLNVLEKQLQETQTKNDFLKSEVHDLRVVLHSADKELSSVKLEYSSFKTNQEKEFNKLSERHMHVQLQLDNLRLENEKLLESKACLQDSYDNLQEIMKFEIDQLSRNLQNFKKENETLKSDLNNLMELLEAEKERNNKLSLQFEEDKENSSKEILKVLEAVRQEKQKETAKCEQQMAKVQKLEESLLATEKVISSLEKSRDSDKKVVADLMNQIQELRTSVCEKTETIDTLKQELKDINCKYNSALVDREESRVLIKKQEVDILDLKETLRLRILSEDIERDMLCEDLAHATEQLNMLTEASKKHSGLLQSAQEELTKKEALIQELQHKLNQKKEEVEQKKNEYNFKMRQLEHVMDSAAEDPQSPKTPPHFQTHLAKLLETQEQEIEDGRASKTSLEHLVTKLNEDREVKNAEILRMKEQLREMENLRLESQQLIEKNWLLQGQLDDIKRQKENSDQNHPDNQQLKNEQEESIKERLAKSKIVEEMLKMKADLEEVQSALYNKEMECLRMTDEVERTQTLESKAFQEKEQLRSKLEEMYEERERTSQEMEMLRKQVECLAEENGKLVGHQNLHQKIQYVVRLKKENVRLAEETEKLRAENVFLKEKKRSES
UniProt Q9BZI7: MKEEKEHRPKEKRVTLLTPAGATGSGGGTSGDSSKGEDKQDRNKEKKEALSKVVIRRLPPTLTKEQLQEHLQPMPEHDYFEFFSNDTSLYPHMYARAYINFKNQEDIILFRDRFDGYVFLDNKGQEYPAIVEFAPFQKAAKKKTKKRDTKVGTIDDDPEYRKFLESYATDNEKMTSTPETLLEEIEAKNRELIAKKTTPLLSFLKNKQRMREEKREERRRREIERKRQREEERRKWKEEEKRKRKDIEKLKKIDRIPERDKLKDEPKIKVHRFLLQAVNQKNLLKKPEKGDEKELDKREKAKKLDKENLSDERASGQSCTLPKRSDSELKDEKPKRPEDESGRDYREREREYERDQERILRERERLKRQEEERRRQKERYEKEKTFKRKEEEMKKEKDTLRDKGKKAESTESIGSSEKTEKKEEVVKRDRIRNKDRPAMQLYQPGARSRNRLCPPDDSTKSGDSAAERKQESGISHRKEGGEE
UniProt Q9HA47: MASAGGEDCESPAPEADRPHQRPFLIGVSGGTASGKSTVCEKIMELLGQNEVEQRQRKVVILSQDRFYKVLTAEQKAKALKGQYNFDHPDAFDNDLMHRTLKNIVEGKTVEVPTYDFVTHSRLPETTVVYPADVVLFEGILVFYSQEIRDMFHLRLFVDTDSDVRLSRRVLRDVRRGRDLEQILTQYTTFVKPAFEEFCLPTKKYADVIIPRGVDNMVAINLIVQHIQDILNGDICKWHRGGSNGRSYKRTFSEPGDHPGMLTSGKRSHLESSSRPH
UniProt Q9H0F7: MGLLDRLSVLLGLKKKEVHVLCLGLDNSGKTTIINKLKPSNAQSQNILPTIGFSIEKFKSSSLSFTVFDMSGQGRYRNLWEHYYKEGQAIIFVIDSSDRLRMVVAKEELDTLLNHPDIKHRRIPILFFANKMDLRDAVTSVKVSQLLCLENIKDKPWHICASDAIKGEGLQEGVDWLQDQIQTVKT
UniProt Q9NRX1: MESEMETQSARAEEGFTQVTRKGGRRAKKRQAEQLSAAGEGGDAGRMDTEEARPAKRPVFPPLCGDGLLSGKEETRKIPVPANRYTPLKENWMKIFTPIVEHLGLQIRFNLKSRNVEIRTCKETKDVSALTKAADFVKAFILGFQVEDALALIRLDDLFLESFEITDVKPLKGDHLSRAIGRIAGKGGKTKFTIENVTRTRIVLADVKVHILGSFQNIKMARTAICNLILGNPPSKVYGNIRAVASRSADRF
UniProt Q9H6Y2: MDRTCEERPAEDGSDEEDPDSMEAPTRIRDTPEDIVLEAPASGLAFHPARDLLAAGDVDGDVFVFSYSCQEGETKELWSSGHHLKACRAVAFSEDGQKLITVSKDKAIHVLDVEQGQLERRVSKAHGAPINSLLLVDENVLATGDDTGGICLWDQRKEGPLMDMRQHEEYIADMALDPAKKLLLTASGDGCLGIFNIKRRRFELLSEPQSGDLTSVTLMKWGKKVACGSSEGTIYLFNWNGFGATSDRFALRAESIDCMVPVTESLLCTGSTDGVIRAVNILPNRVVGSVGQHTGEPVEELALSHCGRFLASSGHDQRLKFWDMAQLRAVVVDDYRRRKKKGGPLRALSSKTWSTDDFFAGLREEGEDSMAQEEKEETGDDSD
UniProt Q9H7Z6: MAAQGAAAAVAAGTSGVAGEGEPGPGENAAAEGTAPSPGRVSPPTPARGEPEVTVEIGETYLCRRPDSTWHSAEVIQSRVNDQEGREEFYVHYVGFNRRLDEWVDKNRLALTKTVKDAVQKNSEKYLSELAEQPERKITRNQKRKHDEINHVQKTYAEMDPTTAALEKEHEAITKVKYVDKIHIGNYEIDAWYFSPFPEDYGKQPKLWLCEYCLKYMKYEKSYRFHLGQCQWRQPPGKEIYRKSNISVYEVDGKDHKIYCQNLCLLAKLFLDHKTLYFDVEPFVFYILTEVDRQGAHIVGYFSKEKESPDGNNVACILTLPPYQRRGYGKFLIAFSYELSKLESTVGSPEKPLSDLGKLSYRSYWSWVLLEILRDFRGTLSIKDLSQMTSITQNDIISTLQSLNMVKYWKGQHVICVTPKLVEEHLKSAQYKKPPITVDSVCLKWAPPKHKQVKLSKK
UniProt Q9GZZ9, whole entry: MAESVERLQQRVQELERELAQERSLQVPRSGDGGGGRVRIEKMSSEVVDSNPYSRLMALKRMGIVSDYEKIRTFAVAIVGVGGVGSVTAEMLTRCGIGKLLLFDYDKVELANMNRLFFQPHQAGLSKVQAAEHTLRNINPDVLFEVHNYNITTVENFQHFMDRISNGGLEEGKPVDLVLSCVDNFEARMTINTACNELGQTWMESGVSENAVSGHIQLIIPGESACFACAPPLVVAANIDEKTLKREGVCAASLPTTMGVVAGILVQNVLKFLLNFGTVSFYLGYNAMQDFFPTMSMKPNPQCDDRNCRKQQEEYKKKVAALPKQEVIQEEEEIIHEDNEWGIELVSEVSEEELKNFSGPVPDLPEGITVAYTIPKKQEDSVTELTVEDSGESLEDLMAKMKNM
UniProt Q9H4L4: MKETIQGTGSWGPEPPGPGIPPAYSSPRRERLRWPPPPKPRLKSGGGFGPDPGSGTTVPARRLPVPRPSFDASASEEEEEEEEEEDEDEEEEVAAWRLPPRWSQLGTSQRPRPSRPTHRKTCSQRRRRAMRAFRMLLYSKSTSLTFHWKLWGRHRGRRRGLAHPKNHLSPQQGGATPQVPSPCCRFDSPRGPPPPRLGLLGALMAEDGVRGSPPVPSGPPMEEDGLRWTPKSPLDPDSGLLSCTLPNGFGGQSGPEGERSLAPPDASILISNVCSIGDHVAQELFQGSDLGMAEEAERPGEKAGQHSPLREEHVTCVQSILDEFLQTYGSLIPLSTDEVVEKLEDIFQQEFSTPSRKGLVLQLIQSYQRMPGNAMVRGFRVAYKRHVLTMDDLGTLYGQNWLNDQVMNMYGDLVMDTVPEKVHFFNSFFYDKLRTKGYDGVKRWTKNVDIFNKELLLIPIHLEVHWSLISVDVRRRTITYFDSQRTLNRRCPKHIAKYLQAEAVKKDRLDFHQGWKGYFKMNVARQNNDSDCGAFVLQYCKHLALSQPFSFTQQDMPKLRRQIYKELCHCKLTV
UniProt Q9HAB8: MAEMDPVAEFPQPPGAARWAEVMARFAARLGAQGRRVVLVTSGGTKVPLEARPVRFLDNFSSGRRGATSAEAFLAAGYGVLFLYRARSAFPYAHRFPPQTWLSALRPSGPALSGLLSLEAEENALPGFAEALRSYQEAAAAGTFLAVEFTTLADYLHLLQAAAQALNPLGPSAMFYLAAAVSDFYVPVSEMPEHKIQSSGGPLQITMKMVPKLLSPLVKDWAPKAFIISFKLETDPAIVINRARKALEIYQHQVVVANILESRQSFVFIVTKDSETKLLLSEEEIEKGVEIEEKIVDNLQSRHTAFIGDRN
UniProt Q9H3R5: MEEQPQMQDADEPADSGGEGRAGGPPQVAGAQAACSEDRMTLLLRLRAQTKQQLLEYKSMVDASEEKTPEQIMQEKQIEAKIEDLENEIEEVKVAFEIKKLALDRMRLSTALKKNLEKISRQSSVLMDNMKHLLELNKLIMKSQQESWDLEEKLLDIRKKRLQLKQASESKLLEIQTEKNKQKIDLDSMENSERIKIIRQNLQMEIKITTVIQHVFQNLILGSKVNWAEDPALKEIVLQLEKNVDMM
UniProt Q9H3P7: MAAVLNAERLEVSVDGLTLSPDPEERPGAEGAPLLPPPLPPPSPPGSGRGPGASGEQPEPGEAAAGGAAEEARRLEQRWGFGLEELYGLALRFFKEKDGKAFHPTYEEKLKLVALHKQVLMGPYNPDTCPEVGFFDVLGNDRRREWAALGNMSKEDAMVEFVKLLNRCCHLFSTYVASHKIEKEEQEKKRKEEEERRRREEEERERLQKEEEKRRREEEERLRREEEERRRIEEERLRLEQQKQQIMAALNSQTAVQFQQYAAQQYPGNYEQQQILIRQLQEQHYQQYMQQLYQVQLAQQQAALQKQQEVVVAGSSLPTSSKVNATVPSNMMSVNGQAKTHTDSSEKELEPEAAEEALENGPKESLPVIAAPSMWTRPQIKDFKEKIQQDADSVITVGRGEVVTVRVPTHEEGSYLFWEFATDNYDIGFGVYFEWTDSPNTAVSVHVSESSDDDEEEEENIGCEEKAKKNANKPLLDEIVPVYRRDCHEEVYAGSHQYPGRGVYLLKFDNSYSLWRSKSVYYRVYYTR

Compound in this assay: Nc1nc2c(ncn2[C@@H]2O[C@H](COP(=O)(O)OP(=O)(O)OP(=O)(O)O)[C@@H](O)[C@H]2O)c(=O)[nH]1 [guanosine triphosphate]
The assay is described as follows: NP40-soluble protein abundance relative to vehicle (solubility fold change) (ratio); higher = more soluble protein in presence of GTP. The procedure, abridged:
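Values are fold changes against the detergent-processed vehicle, based on vsn-normalised intensities. Jurkat crude lysate was treated at eight concentrations from 0.1 to 10 mM (10 min at room temperature, then 3 min at 37 °C), solubilised with 0.8% NP40 and benzonase, ultracentrifuged and analysed by TMT-labelled LC-MS/MS over three independent experiments.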

± gives the standard deviation of the averaged measurements. Some of the results follow.

In the case of UniProt Q9H0F6 and related entries, the NP40-soluble protein abundance (concentration: 0.1mM) amounted to 0.983 ± 0.072; the NP40-soluble protein abundance (concentration: 0.5mM) was 0.948 ± 0.24; the NP40-soluble protein abundance (concentration: 1mM) was determined as 1.09 ± 0.2; the NP40-soluble protein abundance (concentration: 2mM) amounted to 1.07 ± 0.12; the NP40-soluble protein abundance (concentration: 4mM) is 0.983 ± 0.21; the NP40-soluble protein abundance (concentration: 6mM) turned out to be 0.976 ± 0.26. Also, the NP40-soluble protein abundance reads like this: (concentration: 8mM) 1.04 ± 0.19; (concentration: 10mM) 1.07 ± 0.1.
Regarding WDR12 (UniProt Q9GZL7), the NP40-soluble protein abundance runs as follows: (concentration: 0.1mM) 1.05 ± 0.037; (concentration: 0.5mM) 1.05 ± 0.044; (concentration: 1mM) 0.954 ± 0.03; (concentration: 2mM) 0.978 ± 0.081; (concentration: 4mM) 0.949 ± 0.065; (concentration: 6mM) 0.939 ± 0.051. Also, the NP40-soluble protein abundance amounted to 0.92 ± 0.056 (concentration: 8mM) and 0.9 ± 0.1 (concentration: 10mM).
UniProt Q9HAF1 and related entries: the NP40-soluble protein abundance came to 1.19 ± 0.27 (concentration: 0.1mM); 1.12 ± 0.19 (concentration: 0.5mM); 1.29 ± 0.18 (concentration: 1mM); 1.27 ± 0.11 (concentration: 2mM); 1.24 ± 0.085 (concentration: 4mM); 1.18 ± 0.057 (concentration: 6mM). Also, the NP40-soluble protein abundance is, setting by setting: (concentration: 8mM) 1.33 ± 0.16; (concentration: 10mM) 1.38 ± 0.12.
KIF15 (UniProt Q9NS87): the NP40-soluble protein abundance reads like this: (concentration: 0.1mM) 0.975 ± 0.046; (concentration: 0.5mM) 1.01 ± 0.052; (concentration: 1mM) 0.978 ± 0.05; (concentration: 2mM) 0.964 ± 0.05; (concentration: 4mM) 0.94 ± 0.043; (concentration: 6mM) 0.951 ± 0.034. Also, the NP40-soluble protein abundance reads like this: (concentration: 8mM) 0.958 ± 0.05; (concentration: 10mM) 0.935 ± 0.058.
As to UniProt Q9BZI7 and related entries, the NP40-soluble protein abundance by setting is: (concentration: 0.1mM) 0.934 ± 0.096; (concentration: 0.5mM) 0.955 ± 0.082; (concentration: 1mM) 0.994 ± 0.11; (concentration: 2mM) 0.988 ± 0.11; (concentration: 4mM) 0.993 ± 0.1; (concentration: 6mM) 1.01 ± 0.096. In addition, the NP40-soluble protein abundance (concentration: 8mM) came to 1.04 ± 0.12 and the NP40-soluble protein abundance (concentration: 10mM) came to 1.07 ± 0.098.
Regarding UniProt Q9HA47 and related entries, the NP40-soluble protein abundance reads like this: (concentration: 0.1mM) 1.01 ± 0.02; (concentration: 0.5mM) 0.946 ± 0.037; (concentration: 1mM) 1.05 ± 0.1; (concentration: 2mM) 0.966 ± 0.056; (concentration: 4mM) 0.98 ± 0.1; (concentration: 6mM) 0.987 ± 0.034. Also, the NP40-soluble protein abundance is, setting by setting: (concentration: 8mM) 0.983 ± 0.12; (concentration: 10mM) 0.958 ± 0.024.
For UniProt Q9H0F7 and related entries, the NP40-soluble protein abundance came out at 1.02 ± 0.063 (concentration: 0.1mM); 1.03 ± 0.1 (concentration: 0.5mM); 0.914 ± 0.011 (concentration: 1mM); 0.986 ± 0.12 (concentration: 2mM); 0.932 ± 0.065 (concentration: 4mM); 0.904 ± 0.032 (concentration: 6mM). In addition, the NP40-soluble protein abundance is 0.864 ± 0.061 (concentration: 8mM) and 0.882 ± 0.065 (concentration: 10mM).
Take PNO1 (UniProt Q9NRX1): the NP40-soluble protein abundance by setting is: (concentration: 0.1mM) 1.04 ± 0.082; (concentration: 0.5mM) 1.09 ± 0.17; (concentration: 1mM) 1.14 ± 0.19; (concentration: 2mM) 1.15 ± 0.28; (concentration: 4mM) 1.09 ± 0.27; (concentration: 6mM) 1.09 ± 0.3. For the same target, the NP40-soluble protein abundance worked out at 1.15 ± 0.28 (concentration: 8mM) and 1.15 ± 0.32 (concentration: 10mM).
With WDR55 (UniProt Q9H6Y2), the NP40-soluble protein abundance stood at 1.1 ± 0.043 (concentration: 0.1mM); 1.08 ± 0.11 (concentration: 0.5mM); 1.18 ± 0.053 (concentration: 1mM); 1.12 ± 0.047 (concentration: 2mM); 1.19 ± 0.081 (concentration: 4mM); 1.22 ± 0.028 (concentration: 6mM). Besides, the NP40-soluble protein abundance stood at 1.23 ± 0.043 (concentration: 8mM) and 1.2 ± 0.047 (concentration: 10mM).
Take UniProt Q9H7Z6: the NP40-soluble protein abundance reads like this: (concentration: 0.1mM) 1.05 ± 0.029; (concentration: 0.5mM) 1.06 ± 0.025; (concentration: 1mM) 1.07 ± 0.015; (concentration: 2mM) 1.07 ± 0.038; (concentration: 4mM) 1.131 ± 0.0091; (concentration: 6mM) 1.12 ± 0.04. Besides, the NP40-soluble protein abundance stood at 1.17 ± 0.017 (concentration: 8mM) and 1.12 ± 0.0089 (concentration: 10mM).
For UBA5 (UniProt Q9GZZ9), the NP40-soluble protein abundance (concentration: 0.1mM) worked out at 1 ± 0.018; the NP40-soluble protein abundance (concentration: 0.5mM) is 0.967 ± 0.042; the NP40-soluble protein abundance (concentration: 1mM) came to 0.892 ± 0.039; the NP40-soluble protein abundance (concentration: 2mM) was determined as 0.903 ± 0.037; the NP40-soluble protein abundance (concentration: 4mM) worked out at 0.88 ± 0.038; the NP40-soluble protein abundance (concentration: 6mM) worked out at 0.857 ± 0.038. In addition, the NP40-soluble protein abundance runs as follows: (concentration: 8mM) 0.848 ± 0.068; (concentration: 10mM) 0.837 ± 0.072.
Take SENP3 (UniProt Q9H4L4): the NP40-soluble protein abundance came out at 0.973 ± 0.084 (concentration: 0.1mM); 0.972 ± 0.095 (concentration: 0.5mM); 0.968 ± 0.19 (concentration: 1mM); 1.05 ± 0.22 (concentration: 2mM); 1.01 ± 0.19 (concentration: 4mM); 0.987 ± 0.2 (concentration: 6mM). The NP40-soluble protein abundance was 1.05 ± 0.27 (concentration: 8mM) and 1.07 ± 0.11 (concentration: 10mM).
For PPCS (UniProt Q9HAB8), the NP40-soluble protein abundance was 1.01 ± 0.022 (concentration: 0.1mM); 0.983 ± 0.032 (concentration: 0.5mM); 0.929 ± 0.036 (concentration: 1mM); 0.895 ± 0.03 (concentration: 2mM); 0.901 ± 0.076 (concentration: 4mM); 0.905 ± 0.073 (concentration: 6mM). Besides, the NP40-soluble protein abundance by setting is: (concentration: 8mM) 0.857 ± 0.07; (concentration: 10mM) 0.847 ± 0.087.
With CENPH (UniProt Q9H3R5), the NP40-soluble protein abundance amounted to 0.926 ± 0.063 (concentration: 0.1mM); 0.995 ± 0.12 (concentration: 0.5mM); 0.987 ± 0.068 (concentration: 1mM); 0.978 ± 0.0098 (concentration: 2mM); 0.942 ± 0.034 (concentration: 4mM); 1.05 ± 0.045 (concentration: 6mM). For the same target, the NP40-soluble protein abundance (concentration: 8mM) amounted to 1.03 ± 0.039 and the NP40-soluble protein abundance (concentration: 10mM) came out at 1.2 ± 0.33.
Consider ACBD3 (UniProt Q9H3P7), for which the NP40-soluble protein abundance (concentration: 0.1mM) came to 1.02 ± 0.024; the NP40-soluble protein abundance (concentration: 0.5mM) was 1.02 ± 0.027; the NP40-soluble protein abundance (concentration: 1mM) is 0.972 ± 0.059; the NP40-soluble protein abundance (concentration: 2mM) turned out to be 0.944 ± 0.027; the NP40-soluble protein abundance (concentration: 4mM) came to 0.945 ± 0.029; the NP40-soluble protein abundance (concentration: 6mM) was 0.915 ± 0.053. For the same target, the NP40-soluble protein abundance by setting is: (concentration: 8mM) 0.912 ± 0.096; (concentration: 10mM) 0.861 ± 0.089.
